# Test results as given in PubChem BioAssay AID720504 (National Center for Advancing Translational Sciences (NCATS), 2013).
# By UniProt entry, the sequences of proteins in these tests, tags left out.
# UniProt P53350, whole entry, looked up: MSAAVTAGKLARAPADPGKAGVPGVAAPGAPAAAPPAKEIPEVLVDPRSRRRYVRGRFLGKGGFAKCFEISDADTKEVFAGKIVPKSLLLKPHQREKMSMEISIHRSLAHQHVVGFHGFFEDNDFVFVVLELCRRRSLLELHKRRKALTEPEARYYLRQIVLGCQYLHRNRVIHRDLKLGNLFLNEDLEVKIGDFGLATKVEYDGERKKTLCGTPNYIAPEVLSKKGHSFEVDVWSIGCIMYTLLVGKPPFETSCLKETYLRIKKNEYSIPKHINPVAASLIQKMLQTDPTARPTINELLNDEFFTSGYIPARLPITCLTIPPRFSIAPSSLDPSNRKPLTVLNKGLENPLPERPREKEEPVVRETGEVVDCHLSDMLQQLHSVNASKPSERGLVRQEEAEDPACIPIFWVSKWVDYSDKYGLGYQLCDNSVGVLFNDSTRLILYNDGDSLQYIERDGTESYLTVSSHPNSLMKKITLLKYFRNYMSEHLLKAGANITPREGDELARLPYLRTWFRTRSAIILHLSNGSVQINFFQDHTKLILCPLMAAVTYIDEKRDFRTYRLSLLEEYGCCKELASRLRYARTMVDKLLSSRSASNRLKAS
# “And” between values parts separate entries of the source, which are not always exact repeats. Equal values may be shown once. Out of some 360,000 compounds screened, about 10,000 (2.8%) were called active. Inconclusive results, whose numbers are uncertain, are shown with a selection of clear calls. Calls come from the whole dose curve; as a rule, active = well fitted inhibition curve with a large enough effect; inconclusive = small, poorly fitted or top-dose-only effect; inactive = flat fitted curve, though single readings scatter. A potency beside an inconclusive call is a rough fit, not a confirmed value.
# Target: Serine/threonine-protein kinase PLK1 (Homo sapiens) (UniProt P53350)
# Assay: qHTS for Inhibitors of PLK1-PDB (polo-like kinase 1 - polo-box domain): Primary Screen; note: nearly all actives have a fitted effect of over 65% in size; for max response, negative = inhibition: series mostly up to about 57 µM
# Settings: Plk1 PBD binding of FITC phosphopeptide, fluorescence polarization
# % is set by controls: 0 for no effect and ±100 for the full control effect; potency is the fitted concentration of half-maximal effect.
SMILES,Potency,"max response, negative = inhibition"
COc1cc(NCCCCCCN)c2ncccc2c1OC,"inconclusive: 33.6 µM [inhibitor, single point]",–
COc1cc(S(=O)(=O)Nc2ccccc2C)ccc1NC(=O)c1ccncc1,"inconclusive: 21.2 µM [inhibitor, single point]",–
O=C1CNC(=O)/C1=C/c1ccccc1,active: 5.97 µM,–
CCCC(c1nnnn1C1CCCC1)N1CCN(c2ccccc2F)CC1 (stereo unspecified),"inconclusive: 26.7 µM [inhibitor, single point]",–
Nc1c(C(=O)NCC2CCCO2)sc2nc3c(c(-c4ccco4)c12)CC/C3=C\c1ccco1 (stereo unspecified),"inconclusive: 5.32 µM [inhibitor, full curve]",–
CC(C)CC(=O)Nc1ccccc1N1CCOCC1,"inconclusive: 29.9 µM [inhibitor, partial curve]",–
O=C(CSc1ccc2c(c1)OCCO2)Nc1ccc(Br)cn1,"inconclusive: 29.9 µM [inhibitor, partial curve]",–
COc1ccc(-c2nc(C)sc2C)cc1,"inconclusive: 18.9 µM [inhibitor, partial curve]",–
CC(c1ccco1)N(C(=O)CSc1ccc(Br)cc1)c1ccccn1 (stereo unspecified),"inconclusive: 9.47 µM [inhibitor, partial curve]",–
CC(C)(C)NC(=O)COc1ccc(CNCc2cccnc2)cc1,"inconclusive: 37.7 µM [inhibitor, single point]",–
COC(=O)c1ccc(/C=N\NC(=O)CC(=O)NCCc2ccccc2)cc1,"inconclusive: 7.52 µM [inhibitor, partial curve]",–
S=C(Nc1ccc2c(c1)OCO2)Nc1ccccc1Cl,"inconclusive: 37.7 µM [inhibitor, partial curve]",–
Cc1cccc(NC(=O)c2sc3nc4c(c(-c5ccco5)c3c2N)CCC4)c1,"inconclusive: 26.7 µM [inhibitor, partial curve]",–
CC(C)c1ccc(/C=C/C(=O)NC(=S)Nc2ccc(CN3CCOCC3)cc2)cc1,–,inactive: -11.8%
CC(=O)c1cccc(NS(=O)(=O)c2cc3c(cc2C)N(C(C)=O)CCO3)c1,"inconclusive: 21.2 µM [inhibitor, single point]",–
O=C(O)CCc1ccc(-c2ccc(Br)cc2)n1-c1ccc(O)cc1,"inconclusive: 26.7 µM [inhibitor, single point]",–
Cc1nc(N2CCCCC2)sc1C(=O)c1cccc([N+](=O)[O-])c1,–,inactive: -12.2%
CCOC(=O)c1c(NC(=S)Nc2ccccc2)sc2c1CCN(C)C2,"inconclusive: 3.36 µM [inhibitor, full curve]",–
COc1cccc(NC(=O)C2CCCN(S(=O)(=O)c3cccc4cccnc34)C2)c1 (stereo unspecified),"inconclusive: 23.8 µM [inhibitor, partial curve]",–
CC(C)C(=O)N(Cc1cc2ccccc2[nH]c1=O)C(C)(C)C,"inconclusive: 23.8 µM [inhibitor, single point]",–
Cc1ccc(-n2c(O)c(C=Nc3ccc(S(=O)(=O)Nc4ncccn4)cc3)c3ccccc3c2=O)cc1C,"inconclusive: 23.8 µM [inhibitor, single point]",–

# Filtered by structure: the entries above with a carbonyl joined to an NH by a bond outside any ring (9)
SMILES,Potency,"max response, negative = inhibition"
COc1cc(S(=O)(=O)Nc2ccccc2C)ccc1NC(=O)c1ccncc1,"inconclusive: 21.2 µM [inhibitor, single point]",–
Nc1c(C(=O)NCC2CCCO2)sc2nc3c(c(-c4ccco4)c12)CC/C3=C\c1ccco1 (stereo unspecified),"inconclusive: 5.32 µM [inhibitor, full curve]",–
CC(C)CC(=O)Nc1ccccc1N1CCOCC1,"inconclusive: 29.9 µM [inhibitor, partial curve]",–
O=C(CSc1ccc2c(c1)OCCO2)Nc1ccc(Br)cn1,"inconclusive: 29.9 µM [inhibitor, partial curve]",–
CC(C)(C)NC(=O)COc1ccc(CNCc2cccnc2)cc1,"inconclusive: 37.7 µM [inhibitor, single point]",–
COC(=O)c1ccc(/C=N\NC(=O)CC(=O)NCCc2ccccc2)cc1,"inconclusive: 7.52 µM [inhibitor, partial curve]",–
Cc1cccc(NC(=O)c2sc3nc4c(c(-c5ccco5)c3c2N)CCC4)c1,"inconclusive: 26.7 µM [inhibitor, partial curve]",–
CC(C)c1ccc(/C=C/C(=O)NC(=S)Nc2ccc(CN3CCOCC3)cc2)cc1,–,inactive: -11.8%
COc1cccc(NC(=O)C2CCCN(S(=O)(=O)c3cccc4cccnc34)C2)c1 (stereo unspecified),"inconclusive: 23.8 µM [inhibitor, partial curve]",–

# (continued)

SMILES,Potency,"max response, negative = inhibition"
COCCN1C=C2C(=O)C(C)(OC(=O)CCC(=O)OC)C(=O)C(Br)=C2C=C1c1ccc(OC)cc1 (stereo unspecified),"inconclusive: 9.47 µM [inhibitor, partial curve]",–
O=C1NC(=O)/C(=C\c2ccccc2OCc2ccc([N+](=O)[O-])cc2)N1,active: 23.8 µM,–
Cc1nnc(SCC2=C(C(=O)O)N3C(=O)C(NC(=O)COc4ccc(F)cc4)C3SC2)s1 (stereo unspecified),"inconclusive: 23.8 µM [inhibitor, partial curve]",–
COC(=O)CCCn1nc(NC(=O)COc2ccc(F)cc2)cc1C,–,inactive: -3.25%
CC(C)c1onc(C(=O)Nc2sc3c(c2C#N)CCC3)c1[N+](=O)[O-],"inconclusive: 21.2 µM [inhibitor, single point]",–
CN(C)C1(CN=Cc2cc(Cl)cc([N+](=O)[O-])c2O)CCCCC1,"inconclusive: 23.8 µM [inhibitor, partial curve]",–
Cc1nn(-c2ccccc2)c2c1C(c1ccc(Br)s1)C(C#N)=C(N)O2 (stereo unspecified),"inconclusive: 13.4 µM [inhibitor, partial curve]",–
O=C(O)C/C(=C\c1cc(Cl)c2c(c1)OCO2)c1nc2ccccc2s1,"inconclusive: 26.7 µM [inhibitor, single point]",–
CCCCCSc1nc2c(c(=O)[nH]c(=O)n2C)n1C(C)C,"inconclusive: 11.9 µM [inhibitor, partial curve]",–
CSc1cccc(NC(=S)N2CCC(c3ccccc3)C2)c1 (stereo unspecified),–,inactive: -21.2%
Cc1nc2nc(CC(=O)O)[nH]n2c(=O)c1[N+](=O)[O-],"inconclusive: 23.8 µM [inhibitor, single point]",–
O=C(NC(CC1CCCCC1)C(=O)O)c1ccccc1 (stereo unspecified),"inconclusive: 18.9 µM [inhibitor, partial curve]",–
CCCn1c(=O)c(C(=O)NNS(=O)(=O)c2ccc(Cl)cc2)c(O)c2ccccc21,"inconclusive: 29.9 µM [inhibitor, single point]",–
COc1cc(C2Nc3cc(Cl)c(S(N)(=O)=O)cc3S(=O)(=O)N2)cc(OC)c1OC (stereo unspecified),–,inactive: -3.71%
CC1=CC2=NC(=O)CC(C)(C(=O)N(CC(=O)NC3CCCC3)c3cc(C)cc(C)c3)N2C=C1 (stereo unspecified),active: 26.7 µM,–
Cc1nn(-c2ccccc2)c(Cl)c1/C=N/Nc1ccc(Cl)c(C(=O)O)c1,"inconclusive: 42.3 µM [inhibitor, partial curve]",–
O=C1NC(c2ccc(Br)cc2)Nc2sc3c(c21)CCC3 (stereo unspecified),"inconclusive: 23.8 µM [inhibitor, partial curve]",–
COC(=O)C1CCN(Cc2ccc(C)cc2)CC1,–,inactive: -3.14%
COc1ccc(/C=C2\SC(=S)NC2=O)cc1OS(=O)(=O)c1ccc(NC(C)=O)cc1,"inconclusive: 23.8 µM [inhibitor, single point]",–
Cc1ccccc1-n1c(SC/C(O)=C(\C#N)c2nc3ccccc3[nH]2)nnc1-c1ccncc1,"inconclusive: 26.7 µM [inhibitor, partial curve] and inconclusive: 75.2 µM [inhibitor, partial curve]",–
